# Measured values reported in the supplement of paper PMC3334620.
# In all, about 33,000 sequences were measured (“E-score (-0.5 to 0.5)”: median about -0.016, highest 2% from about 0.3 on). The list shows a part of the results.
# Target: T1, Yer184c (UniProt P39961)
# T1 sequence: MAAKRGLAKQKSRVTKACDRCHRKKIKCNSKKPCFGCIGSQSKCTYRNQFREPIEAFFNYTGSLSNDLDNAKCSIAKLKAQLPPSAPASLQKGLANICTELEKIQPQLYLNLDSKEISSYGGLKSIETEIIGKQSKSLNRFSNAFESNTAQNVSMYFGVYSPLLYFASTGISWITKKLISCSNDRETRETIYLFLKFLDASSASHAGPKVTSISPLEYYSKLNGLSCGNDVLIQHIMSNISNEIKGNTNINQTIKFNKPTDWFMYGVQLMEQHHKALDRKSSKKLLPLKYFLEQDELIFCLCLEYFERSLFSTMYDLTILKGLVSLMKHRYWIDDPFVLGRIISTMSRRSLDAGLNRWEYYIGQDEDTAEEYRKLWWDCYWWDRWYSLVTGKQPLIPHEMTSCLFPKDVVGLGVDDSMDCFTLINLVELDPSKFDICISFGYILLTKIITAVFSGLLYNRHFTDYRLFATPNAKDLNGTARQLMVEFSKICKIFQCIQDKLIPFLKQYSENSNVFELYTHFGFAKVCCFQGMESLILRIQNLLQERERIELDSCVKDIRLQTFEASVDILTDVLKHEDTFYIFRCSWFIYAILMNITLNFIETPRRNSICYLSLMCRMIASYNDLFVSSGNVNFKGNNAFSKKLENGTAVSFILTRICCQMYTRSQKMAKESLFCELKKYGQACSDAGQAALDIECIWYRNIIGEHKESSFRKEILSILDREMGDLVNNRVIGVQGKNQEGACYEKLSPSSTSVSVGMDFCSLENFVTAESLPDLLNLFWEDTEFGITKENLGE
# Assay: PBM E-score (8-mer binding enrichment) (E-score (-0.5 to 0.5)); higher = stronger / more preferred TF binding
# Conditions: protein concentration: 100 nM; construct: GST-full length
# Summary of the method: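 Universal all-10-mer Agilent arrays, fresh or stripped once, were converted to double-stranded form by primer extension. GST-tagged yeast transcription factors from PURExpress in vitro transcription/translation, full-length or DNA-binding domain only, were applied at about 100-200 nM and detected with fluorescent anti-GST. After masliner normalisation, the Universal PBM Analysis Suite scored each ungapped eight-base word together with its reverse complement by E-score.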
row,Sequence,PBM E-score
1,AACGTAAG,-0.122
2,GATTCTGA,0.103
3,ATCTTTAC,0.0213
4,CAATACTG,-0.0319
5,ATTAGATC,0.127
6,GCAAGCTA,0.034
7,CACCTACA,-0.206
8,AACTGACT,-0.0574
9,GCGTACAC,-0.178
10,ATCGGATG,0.236
11,ACCTACTC,-0.146
12,AGCCGGCC,0.333
13,AAGTCAGA,-0.0473
14,CACGGTCA,-0.0695
15,AAGCTTGA,-0.0898
16,GAAATATC,0.175
17,AGTATGTC,0.0841
18,GCCCAAAC,0.0356
19,TTGAAAAA,0.208
20,AAAGTCTT,0.0738
21,ACGACGAA,0.195
22,ACTCTACT,0.0946
23,CCCCCAGA,-0.406
24,AGAGAAGA,0.116
25,ATTGCGTC,-0.0563

row,Sequence,PBM E-score
1,CACCCAAC,-0.0756
2,CGTAATTC,0.065
3,AACTTATG,0.0543
4,CGCCAGTC,-0.16
5,ATAAGCTA,0.0794
6,CTTAACCC,-0.114
7,ACTTGCAG,-0.129
8,TCAACGAA,0.16
9,ATGGCCAG,-0.084
10,AGCGAAAA,0.0974
11,GTATGCCA,-0.258
12,ACTTTCCC,-0.101
13,CTTGTTTA,0.133
14,CAATCTTA,0.0301
15,AACGCGGT,0.0906
16,CCGTGATC,0.144
17,ACCTTGCA,-0.197
18,ACCAGCGG,-0.0642
19,CCTCAAGA,-0.0169
20,AGGTAACT,0.00177
21,AAAGAGAA,-0.065
22,CCCTTTCC,-0.11
23,ACCAACAA,0.181
24,AGCAGTTC,-0.0572
25,AAATGGAC,0.163

row,Sequence,PBM E-score
1,TCAGGTAA,-0.158
2,CGTTATAA,0.0757
3,ATCAGCCA,-0.0736
4,TACGGGGA,0.0473
5,AGGCCATC,-0.0339
6,TCGGATAA,0.379
7,AAAAGGGT,-0.0864
8,TCTTATAA,0.16
9,ATCGCCGA,0.365
10,AGTCCCCA,-0.371
11,CGCGTAAC,-0.0774
12,ATTAAAGC,0.138
13,CAGCGCTC,-0.0643
14,TCACTCCA,-0.0913
15,CGGTCAGA,0.102
16,CTTCGCGA,0.0769
17,ATATCGGA,0.277
18,CAGCCTGG,-0.231
19,TACCCGTA,-0.0504
20,CTCCTACC,-0.0959
21,AGACTGTG,-0.185
22,ATATCCGC,0.178
23,AGTTGTTC,0.0761
24,CAAAAAGG,-0.0941
25,CTAATGTC,-0.0899

row,Sequence,PBM E-score
1,GTACGGAA,0.28
2,CCTTCCAA,-0.162
3,GTATAGCA,0.168
4,CATAGGCG,-0.145
5,TACACCTA,-0.105
6,GGGCAAAA,0.102
7,ACGGGCAT,-0.092
8,GAACGCTA,-0.109
9,GCAGGGAC,-0.254
10,GCTAGAGC,-0.0414
11,CACAGTAC,-0.0954
12,CTCCATTC,-0.134
13,CTACGGTC,-0.109
14,AAATCATT,0.142
15,AGAATCCC,0.07
16,CTCGGGGC,-0.0333
17,CCCTTTTC,-0.0872
18,CAGTCCGG,0.143
19,CACAACAC,-0.0353
20,ATTGCTCC,0.00744
21,CGTTATCC,0.0893
22,CTCGGATC,0.241
23,CAACTCTG,-0.103
24,AACAGACC,0.11
25,CCTGACCG,-0.0569

# Some values from the results shown.
# CAACTCTG – PBM E-score: -0.103
# AAATCATT – PBM E-score: 0.142
# CACAGTAC – PBM E-score: -0.0954
# GTATAGCA – PBM E-score: 0.168
# GCTAGAGC – PBM E-score: -0.0414

# Later entries

row,Sequence,PBM E-score
1,CATTCGCC,-0.01
2,AAAGATTT,0.108
3,CCGGTGCC,0.163
4,ACCTAGCC,-0.0261
5,AGGCTGTG,-0.156
6,AACCCGGA,0.266
7,ATGCCATC,0.0964
8,ACGCGGTA,-0.105
9,GTTCAGTA,0.0833
10,GCATATAC,-0.0635
11,GAACAGCC,-0.0222
12,ACATTCGG,0.143
13,CACTTGGA,0.00265
14,AGAGTCAC,-0.172
15,ACTAGTAA,0.124
16,CAGGTAGG,-0.265
17,AGATACTA,0.0257
18,AGGCCCTA,-0.0792
19,GAGCAAAA,-0.0403
20,CACTACGC,-0.159
21,ATCCAGGA,-0.19
22,AACCATAC,-0.0439
23,TGACTACA,-0.022
24,CTCCCTCC,-0.11
25,CAACTGCG,-0.128

# Two entries drawn at random from those above:
row,Sequence,PBM E-score
17,ATATCGGA,0.277
2,CGTTATAA,0.0757

# Later entries:

row,Sequence,PBM E-score
1,TCTAGGAA,-0.0682
2,GAGAAAGA,0.173
3,GACTGAAA,0.148
4,AGCCATCA,0.0179
5,CGAAAACC,0.123
6,CGTTAACC,0.0714
7,AATATTAT,0.293
8,AATTCGCC,0.267
9,GCGGGCAA,0.0613
10,ATAGCTGC,0.0565
11,CTACGTGA,-0.209
12,CCCAACTA,-0.0958
13,CCCGAGAG,0.0683
14,GGTTGGCA,-0.1
15,CTAAGTCA,0.0188
16,CATTCGTC,0.00576
17,AAAGAGGG,-0.237
18,AGCGCTAC,-0.0782
19,CTGCCATA,-0.167
20,GTAGATGA,0.121
21,TGGATCCA,0.165
22,GGCGAAAC,0.149
23,GATCCCAC,-0.102
24,ATTTGCGC,0.0548
25,AATCTTAG,0.124

row,Sequence,PBM E-score
1,AGTGTTAT,-0.0049
2,ATGATCCA,-0.219
3,ACTACGTA,-0.0862
4,ACACCATA,-0.0101
5,CCCATCTA,-0.176
6,AGCATATC,-0.0796
7,GCGTTTGA,-0.0099
8,AATATTGT,0.225
9,AATCTAAC,0.133
10,TAACCATA,-0.0927
11,GATAGCGA,-0.145
12,CCTGTGCC,-0.0204
13,CTGGTCCA,-0.222
14,ATACCGCA,-0.135
15,CCAGCTAG,-0.263
16,CTCAGGCA,-0.00429
17,AGAAGAAG,0.0766
18,CAGTCTCG,-0.0905
19,CTCTACTA,0.0728
20,ATACAGGG,-0.0592
21,ATACGCGA,-0.1
22,CCGATGCA,0.157
